In US8476434B2, “Protein kinase modulators and method of use” (Amgen Inc., priority 2004, dated 2013):
pIC50: −log10 of the molar value. Some entries share one result that the patent states for a list of compounds.

Protein sequences, listed by entry. Tags and fused reporters are not part of them. Residues count along the entry.
UniProt Q02763, 23-1124: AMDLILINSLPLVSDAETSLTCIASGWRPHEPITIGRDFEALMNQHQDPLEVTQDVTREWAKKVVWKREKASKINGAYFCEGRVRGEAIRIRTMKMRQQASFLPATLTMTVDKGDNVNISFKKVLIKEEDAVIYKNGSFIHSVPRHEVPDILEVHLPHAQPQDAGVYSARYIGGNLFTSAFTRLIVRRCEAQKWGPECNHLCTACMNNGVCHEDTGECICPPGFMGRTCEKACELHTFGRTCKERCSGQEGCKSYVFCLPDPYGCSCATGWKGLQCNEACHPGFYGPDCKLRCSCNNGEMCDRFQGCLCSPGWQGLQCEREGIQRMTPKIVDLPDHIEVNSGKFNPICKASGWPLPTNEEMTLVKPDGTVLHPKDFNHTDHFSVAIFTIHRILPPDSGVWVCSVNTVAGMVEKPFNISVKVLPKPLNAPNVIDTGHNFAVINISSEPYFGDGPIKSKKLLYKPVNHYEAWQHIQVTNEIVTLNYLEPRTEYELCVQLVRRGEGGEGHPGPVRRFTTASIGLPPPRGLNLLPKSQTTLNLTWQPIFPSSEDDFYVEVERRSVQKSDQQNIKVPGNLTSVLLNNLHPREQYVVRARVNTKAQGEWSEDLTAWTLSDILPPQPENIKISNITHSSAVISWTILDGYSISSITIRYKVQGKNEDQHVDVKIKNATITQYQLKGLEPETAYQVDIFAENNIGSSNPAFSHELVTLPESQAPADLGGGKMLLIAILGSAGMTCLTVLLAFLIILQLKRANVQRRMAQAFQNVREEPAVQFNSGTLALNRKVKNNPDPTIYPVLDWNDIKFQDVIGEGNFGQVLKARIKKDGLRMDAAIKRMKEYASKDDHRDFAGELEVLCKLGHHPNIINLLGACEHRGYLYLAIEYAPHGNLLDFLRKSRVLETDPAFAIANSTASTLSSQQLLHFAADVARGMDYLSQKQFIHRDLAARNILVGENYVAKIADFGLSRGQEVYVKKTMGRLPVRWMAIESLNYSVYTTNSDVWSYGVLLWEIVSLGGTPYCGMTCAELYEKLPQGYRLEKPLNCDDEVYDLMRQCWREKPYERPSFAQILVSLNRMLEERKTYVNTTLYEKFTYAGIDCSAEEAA

Tests used:
Tie-2 kinase enzyme = Tie-2 kinase enzyme (Homo sapiens, UniProt Q02763); test: Tie-2 Homogenous Time Resolved Fluorescent (HTRF) kinase assay; assay type: biochemical; conditions: read-out: IC50's for the inhibition of Tie-2 as measured by the HTRF assay
AuroraA-TPX2 KD GST = target: T1, AuroraA-TPX2 KD GST (Homo sapiens, UniProt O14965); test: AuroraA-TPX2 Homogeneous Time Resolved Fluorescent (HTRF) kinase assay; assay type: biochemical; conditions: read-out: activity in the Aurora kinase A HTRF assay
T1 construct: AuroraA-TPX2 KD GST; GST
T1 sequence (O14965 133-383 limits assumed): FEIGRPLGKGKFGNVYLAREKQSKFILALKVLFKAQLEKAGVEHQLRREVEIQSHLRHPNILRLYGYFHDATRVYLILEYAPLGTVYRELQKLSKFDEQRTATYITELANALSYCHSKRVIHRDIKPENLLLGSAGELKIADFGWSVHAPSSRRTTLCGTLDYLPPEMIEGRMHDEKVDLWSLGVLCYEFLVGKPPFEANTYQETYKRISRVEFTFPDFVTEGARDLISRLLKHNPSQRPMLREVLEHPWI
T1 sequence (Q9ULW0 1-43 partner limits assumed): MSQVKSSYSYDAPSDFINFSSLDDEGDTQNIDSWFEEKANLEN

Row | Structure (SMILES) | pIC50 (Tie-2 kinase enzyme) | pIC50 (AuroraA-TPX2 KD GST)
1 | CNc1nccc(-c2cccnc2Oc2ccc(NC(=O)Nc3cc(F)ccc3C)cc2C)n1 [Example 883, N-(5-fluoro-2-methylphenyl)-N′-(3-methyl-4-((3-(2-(methylamino)-4-pyrimidinyl)-2-pyridinyl)oxy)phenyl)urea] | > 5.30 | > 5.00
2 | CNc1nccc(-c2cccnc2Oc2ccc(NC(=O)Nc3cc(Cl)c(Cl)cc3Cl)cc2C)n1 [Example 884, N-(3-methyl-4-((3-(2-(methylamino)-4-pyrimidinyl)-2-pyridinyl)oxy)phenyl)-N′-(2,4,5-trichlorophenyl)urea] | > 5.30 | > 5.00
3 | COc1ccc(Cl)cc1NC(=O)Nc1ccc(Oc2ncccc2-c2ccnc(NCCCN3CCCC3=O)n2)c(C)c1 [Example 885, N-(5-chloro-2-(methyloxy)phenyl)-N′-(3-methyl-4-((3-(2-((3-(2-oxo-1-pyrrolidinyl)propyl)amino)-4-pyrimidinyl)-2-pyridinyl)oxy)phenyl)urea] | > 5.30 | > 5.00
4 | Cc1cc(NC(=O)Nc2cccc(C(F)(F)F)c2)ccc1Oc1ncccc1-c1ccnc(NCCCN2CCCC2=O)n1 [Example 886, N-(3-methyl-4-((3-(2-((3-(2-oxo-1-pyrrolidinyl)propyl)amino)-4-pyrimidinyl)-2-pyridinyl)oxy)phenyl)-N′-(3-(trifluoromethyl)phenyl)urea] | > 5.30 | > 5.00
5 | CNc1nccc(-c2cccnc2Oc2ccc(NC(=O)Nc3cccc(SC(F)(F)F)c3)cc2C)n1 [Example 887, N-(3-methyl-4-((3-(2 (methylamino)-4-pyrimidinyl)-2-pyridinyl)oxy)phenyl)-N′-(3-((trifluoromethyl)sulfanyl)phenyl)urea] | > 5.30 | > 5.00
6 | CNc1nccc(-c2cccnc2Oc2ccc(NC(=O)Nc3cc(F)cc(C(F)(F)F)c3)c(C)c2C)n1 [Example 891, N-(2,3-dimethyl-4-((3-(2-(methylamino)-4-pyrimidinyl)-2-pyridinyl)oxy)phenyl)-N′-(3-fluoro-5-(trifluoromethyl)phen-yl)urea] | > 5.30 | > 5.00
7 | CNc1nccc(-c2cccnc2Oc2ccc(NC(=O)Nc3cc(C(F)(F)F)ccc3Cl)c(C)c2C)n1 [Example 892, N-(2-chloro-5-(trifluoromethyl)phenyl)-N′-(2,3-dimethyl-4-((3-(2-(methylamino)-4-pyrimidinyl)-2-pyridinyl)oxy)phenyl)urea] | > 5.30 | > 5.00
8 | CNc1nccc(-c2cccnc2Oc2ccc(NC(=O)Nc3cc(Cl)c(OC)cc3OC)c(C)c2C)n1 [Example 893, N-(5-chloro-2,4-bis(methyloxy)phenyl)-N′-(2,3-dimethyl-4-((3-(2-(methylamino)-4-pyrimidinyl)-2-pyridinyl)oxy)phenyl)urea] | > 5.30 | > 5.00
9 | CNc1nccc(-c2cccnc2Oc2ccc(NC(=O)Nc3cc(C(F)(F)F)ccc3-n3cncn3)cc2C)n1 [Example 894, N-(3-methyl-4-((3-(2-(methylamino)-4-pyrimidinyl)-2-pyridinyl)oxy)phenyl)-N′-(2-(1H-1,2,4-triazol-l-yl)-5-(trifluoromethyl)phenyl)urea] | > 5.30 | > 5.00
10 | CNc1nccc(-c2cccnc2Oc2ccc(NC(=O)Nc3cc(C(F)(F)F)ccn3)cc2C)n1 [Example 895, N-(3-methyl-4-((3-(2-(methylamino)-4-pyrimidinyl)-2-pyridinyl)oxy)phenyl)-N′-(4-(trifluoromethyl)-2-pyridinyl)urea] | > 5.30 | > 5.00
11 | CNc1nccc(-c2cccnc2Oc2ccc(NC(=O)Nc3cc(C(F)(F)F)ccc3OC)cc2C)n1 [Example 896, N-(3-methyl-4-((3-(2-(methylamino)-4-pyrimidinyl)-2-pyridinyl)oxy)phenyl)-N′-(2-(methyloxy)-5-(trifluoromethyl)phenyl)urea] | > 5.30 | > 5.00
12 | CNc1nccc(-c2cccnc2Oc2ccc(NC(=O)Nc3cc(Cl)ccc3OC)cc2)n1 [Example 901, N-(5-chloro-2-(methyloxy)phenyl)-N′-(4-((3-(2-(methylamino)-4-pyrimidinyl)-2-pyridinyl)oxy)phenyl)urea] | > 5.30 | > 5.00
13 | CNc1nccc(-c2cccnc2Oc2ccc(NC(=O)Nc3cc(Cl)c(OC)cc3OC)cc2)n1 [Example 902, N-(5-chloro-2,4-bis(methyloxy)phenyl) N′-(4-((3-(2-(methylamino)-4-pyrimidinyl)-2-pyridinyl)oxy)phenyl)urea] | > 5.30 | > 5.00
14 | CNc1nccc(-c2cccnc2Oc2ccc(NC(=O)Nc3cc(C(F)(F)F)ccc3Cl)cc2)n1 [Example 904, N-(2-chloro-5-(trifluoromethyl)phenyl)-N′-(4-((3-(2-(methylamino)-4-pyrimidinyl)-2-pyridinyl)oxy)phenyl)urea] | > 5.30 | > 5.00
15 | CNc1nccc(-c2cccnc2Oc2ccc(NC(=O)Nc3cc(F)cc(C(F)(F)F)c3)cc2)n1 [Example 906, N-(3-fluoro-5-(trifluoromethyl)phenyl)-N′-(4-((3-(2-(methylamino)-4-pyrimidinyl)-2-pyridinyl)oxy)phenyl)urea] | > 5.30 | > 5.00
16 | CNc1nccc(-c2cccnc2Oc2ccc(NC(=O)Nc3cc(C(F)(F)F)ccc3N(C)[C@@H]3CCN(C)C3)cc2C)n1 [Example 908, N-(3-methyl-4-((3-(2-(methylamino)-4-pyrimidinyl)-2-pyridinyl)oxy)phenyl)-N′-(2-(methyl((3R)-1-methyl-3-pyrrolidinyl)amino)-5-(trifluoromethyl)phenyl)urea] | > 5.30 | > 5.00
17 | CNc1nccc(-c2cccnc2Sc2ccc(NC(=O)Nc3cc(Cl)ccc3OC)cc2)n1 [Example 909, N-(5-chloro-2-(methyloxy)phenyl)-N′-(4-((3-(2-(methylamino)-4-pyrimidinyl)-2-pyridinyl)sulfanyl)phenyl) urea] | > 5.30 | > 5.00
18 | CNc1nccc(-c2cccnc2Sc2ccc(NC(=O)Nc3cccc(Cl)c3)cc2)n1 [Example 910, N-(3-chlorophenyl)-N′-(4-((3-(2-(methylamino)-4-pyrimidinyl)-2-pyridinyl)sulfanyl)phenyl)urea] | > 5.30 | > 5.00
19 | CNc1nccc(-c2cccnc2Sc2ccc(NC(=O)Nc3cc(F)cc(C(F)(F)F)c3)cc2)n1 [Example 911, N-(3-fluoro-5-(trifluoromethyl)phenyl)-N′-(4-((3-(2-(methylamino)-4-pyrimidinyl)-2-pyridinyl)sulfanyl)phenyl) urea] | > 5.30 | > 5.00
20 | CNc1nccc(-c2cccnc2Sc2ccc(NC(=O)Nc3cccc(Br)c3)cc2)n1 [Example 912, N-(3-bromophenyl)-N′-(4-((3-(2-(methylamino)-4-pyrimidinyl)-2-pyridinyl)sulfanyl)phenyl) urea] | > 5.30 | > 5.00
21 | CNc1nccc(-c2cccnc2Oc2ccc(NC(=O)c3cccc(C(F)(F)F)c3)cc2)n1 [Example 918, N-(4-((3-(2-(methylamino)-4-pyrimidinyl)-2-pyridinyl)oxy)phenyl)-3-(trifluoromethyl)benz-amide] | > 5.30 | > 5.00
22 | CNc1cc(-c2cccnc2Oc2ccc(NC(=O)Nc3cc(Cl)ccc3OC)cc2)ccn1 [Example 920, N-(5-chloro-2-(methyloxy)phenyl)-N′-(4-((2′-(methylamino)-3,4′-bipyridin-2-yl)oxy)phenyl)urea] | > 5.30 | > 5.00
23 | CNc1nccc(-c2cccnc2Sc2ccc(NC(=O)Nc3cc(C(F)(F)F)ccc3Cl)cc2)n1 [Example 923, N-(2-chloro-5-(trifluoromethyl)phenyl)-N′-(4-((3-(2-(methylamino)-4-pyrimidinyl)-2-pyridinyl)sulfanyl)phenyl) urea] | > 5.30 | > 5.00
24 | CNc1nccc(-c2cccnc2Oc2ccc(NC(=O)c3cccs3)cc2C)n1 [Example 924, N-(3-methyl-4-((3-(2-(methylamino)-4-pyrimidinyl)-2-pyridinyl)oxy)phenyl)-2-thiophenecarboxamide] | > 5.30 | > 5.00
25 | CNc1nccc(-c2cccnc2Oc2ccc(NC(=O)Nc3ccccc3F)cc2)n1 [Example 926, N-(2-fluorophenyl)-N′-(4-((3-(2-(methylamino)-4-pyrimidinyl)-2-pyridinyl)oxy)phenyl)urea] | > 5.30 | > 5.00
26 | CNc1nccc(-c2cccnc2Sc2ccc(NC(=O)Nc3cccc(C(F)(F)F)c3)cc2)n1 [Example 929, N-(4-((3-(2-(methylamino)-4-pyrimidinyl)-2-pyridinyl)sulfanyl)phenyl)-N′-(3-(trifluoromethyl)phenyl)urea] | > 5.30 | > 5.00
27 | CNc1nccc(-c2cccnc2Oc2ccc(NC(=O)Nc3cccc(SC(F)(F)F)c3)cc2)n1 [Example 931, N-(4-((3-(2-(methylamino)-4-pyrimidinyl)-2-pyridinyl)oxy)phenyl)-N′-(3-((trifluoromethyl)sulfanyl)phenyl)urea] | > 5.30 | > 5.00
28 | CNc1nccc(-c2cccnc2Oc2ccc(NC(=O)Nc3cccc(C#N)c3)cc2)n1 [Example 932, N-(3-cyanophenyl)-N′-(4-((3-(2-(methylamino)-4-pyrimidinyl)-2-pyridinyl)oxy)phenyl)urea] | > 5.30 | > 5.00
29 | CCOC(=O)c1cccc(NC(=O)Nc2ccc(Oc3ncccc3-c3ccnc(NC)n3)cc2)c1 [Example 933, ethyl 3-((((4-((3-(2-(methylamino)-4-pyrimidinyl)-2-pyridinyl)oxy)phenyl)amino)carbonyl)amino) benzoate] | > 5.30 | > 5.00
